These are yes or no findings as the source states them, for the method shown. Some results given as binding are weak or reduced against the parent protein; the word gives no strength.
Biological target: ANK domain of Notch1 intracellular segment N1ICD (UniProt P46531)
Assay: SPR

The chains behind the UniProt entries cited, without tags or fusion partners. Residues count along the entry.
UniProt P46531, residues 1872-2126: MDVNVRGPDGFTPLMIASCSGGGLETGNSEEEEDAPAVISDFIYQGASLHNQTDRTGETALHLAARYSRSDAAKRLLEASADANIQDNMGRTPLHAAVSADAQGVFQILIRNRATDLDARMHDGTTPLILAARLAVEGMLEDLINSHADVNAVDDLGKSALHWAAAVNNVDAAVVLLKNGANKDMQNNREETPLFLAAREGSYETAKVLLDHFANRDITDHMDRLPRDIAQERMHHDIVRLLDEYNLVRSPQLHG

Row | Binder | binding
1 | YAKRIFYQLLSKEL [AH2 (α-helix 2 of N1DARP)] | binds
2 | YAKRIFYQLLSKQL [modified AH2 (mAH2), modified α-helice 2] | binds
